Measurements as given in the M2OR odorant receptor database.
Changes are numbered by the printed parent chain. This is a selection; strong and weak results do not stand in their true shares. Calls are pooled over several reports, among them a noisy single-well screen. The list shows a part of the results.

Sequences of proteins named here, by UniProt entry; tags and fusion partners are left off. A line that says so, or that is headed by a name, gives the form on record, which may keep a tag or linker.
UniProt Q7TRA2, as listed by the source: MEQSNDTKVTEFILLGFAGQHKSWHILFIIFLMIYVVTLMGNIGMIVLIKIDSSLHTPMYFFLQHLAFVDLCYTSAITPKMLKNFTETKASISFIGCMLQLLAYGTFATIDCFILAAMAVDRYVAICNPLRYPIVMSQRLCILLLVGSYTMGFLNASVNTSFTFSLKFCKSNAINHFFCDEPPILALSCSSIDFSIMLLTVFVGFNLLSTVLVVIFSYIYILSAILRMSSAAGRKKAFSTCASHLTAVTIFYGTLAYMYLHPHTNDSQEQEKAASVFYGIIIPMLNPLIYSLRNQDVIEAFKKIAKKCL

How the values were obtained:
Conditions in all cases: stereoisomer not certain
[1] = biological target: T1, UniProt E9Q6Z7
T1 sequence (whole entry): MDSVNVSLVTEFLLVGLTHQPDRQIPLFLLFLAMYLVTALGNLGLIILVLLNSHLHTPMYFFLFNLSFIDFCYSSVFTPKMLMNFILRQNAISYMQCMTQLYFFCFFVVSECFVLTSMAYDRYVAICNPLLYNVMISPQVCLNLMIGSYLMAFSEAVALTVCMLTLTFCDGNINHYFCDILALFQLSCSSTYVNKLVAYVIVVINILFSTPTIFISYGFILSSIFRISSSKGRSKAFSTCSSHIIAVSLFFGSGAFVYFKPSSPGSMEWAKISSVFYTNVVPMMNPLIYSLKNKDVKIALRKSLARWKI
Method in brief: (§1)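 Values were gathered from published papers (main text and supplementary material), with extra details requested from the original authors when needed, and checked for typos and inconsistencies. Each receptor–molecule pair is called responsive (active) if the original authors judged the measured signal statistically different from baseline, and non-responsive (inactive) otherwise. Assay methods varied by source, often transient mammalian cell-line luciferase assays. Recorded details include cell line, G-protein, co-transfected protein and tags.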

[2] = biological target: T2, UniProt K7N609
T2 sequence (whole entry): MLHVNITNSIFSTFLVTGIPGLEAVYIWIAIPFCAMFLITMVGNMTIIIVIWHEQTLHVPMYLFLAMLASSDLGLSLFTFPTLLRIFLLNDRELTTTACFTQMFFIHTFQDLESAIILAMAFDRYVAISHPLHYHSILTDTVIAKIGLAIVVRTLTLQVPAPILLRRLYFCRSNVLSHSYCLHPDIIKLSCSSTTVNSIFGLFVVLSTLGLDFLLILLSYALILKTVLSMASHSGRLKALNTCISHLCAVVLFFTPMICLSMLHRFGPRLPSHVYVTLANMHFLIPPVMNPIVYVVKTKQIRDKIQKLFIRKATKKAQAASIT
Method in brief: as §1

[3] = biological target: T3, UniProt L7MU75
T3 sequence (whole entry): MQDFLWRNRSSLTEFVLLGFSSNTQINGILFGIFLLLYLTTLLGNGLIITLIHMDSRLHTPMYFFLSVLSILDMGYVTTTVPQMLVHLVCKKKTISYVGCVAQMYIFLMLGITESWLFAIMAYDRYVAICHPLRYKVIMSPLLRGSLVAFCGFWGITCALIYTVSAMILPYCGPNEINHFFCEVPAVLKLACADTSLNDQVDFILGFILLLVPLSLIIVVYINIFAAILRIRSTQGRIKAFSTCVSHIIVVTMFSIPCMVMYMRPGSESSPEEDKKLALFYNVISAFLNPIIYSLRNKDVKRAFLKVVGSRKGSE
Method in brief: as §1

[4] = biological target: T4, UniProt L7N210
T4 sequence (whole entry): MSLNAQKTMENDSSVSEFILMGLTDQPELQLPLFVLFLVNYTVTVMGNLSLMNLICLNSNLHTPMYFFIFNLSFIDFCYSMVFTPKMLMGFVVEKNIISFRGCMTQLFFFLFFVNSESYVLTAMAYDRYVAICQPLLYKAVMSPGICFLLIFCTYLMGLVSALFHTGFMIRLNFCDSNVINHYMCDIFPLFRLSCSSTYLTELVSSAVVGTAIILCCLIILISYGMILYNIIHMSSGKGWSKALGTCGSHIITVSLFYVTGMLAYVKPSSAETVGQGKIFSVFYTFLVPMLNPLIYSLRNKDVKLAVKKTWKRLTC
Method in brief: as §1

[5] = biological target: T5, UniProt Q3KPB0
T5 sequence (whole entry): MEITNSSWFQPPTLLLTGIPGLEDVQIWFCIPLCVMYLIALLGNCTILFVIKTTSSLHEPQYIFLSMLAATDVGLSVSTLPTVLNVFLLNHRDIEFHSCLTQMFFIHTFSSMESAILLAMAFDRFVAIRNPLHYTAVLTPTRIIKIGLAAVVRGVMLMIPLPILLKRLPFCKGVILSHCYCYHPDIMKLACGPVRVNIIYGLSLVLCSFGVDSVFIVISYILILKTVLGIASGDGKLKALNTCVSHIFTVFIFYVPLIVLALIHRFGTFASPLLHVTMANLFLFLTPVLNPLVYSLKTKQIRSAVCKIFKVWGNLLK
Method in brief: as §1

[6] = biological target: T6, UniProt Q3U0P3
T6 sequence (whole entry): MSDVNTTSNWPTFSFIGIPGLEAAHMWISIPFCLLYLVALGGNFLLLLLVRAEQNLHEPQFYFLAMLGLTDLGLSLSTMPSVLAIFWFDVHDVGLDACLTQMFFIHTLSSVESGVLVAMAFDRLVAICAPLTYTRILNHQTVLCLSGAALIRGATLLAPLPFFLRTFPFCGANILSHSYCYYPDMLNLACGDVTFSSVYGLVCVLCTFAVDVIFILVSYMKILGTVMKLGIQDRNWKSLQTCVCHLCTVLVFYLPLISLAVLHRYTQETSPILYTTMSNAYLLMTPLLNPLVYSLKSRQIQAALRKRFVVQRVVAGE
Method in brief: as §1

[7] = biological target: T7, UniProt Q7TQU8
T7 sequence (whole entry): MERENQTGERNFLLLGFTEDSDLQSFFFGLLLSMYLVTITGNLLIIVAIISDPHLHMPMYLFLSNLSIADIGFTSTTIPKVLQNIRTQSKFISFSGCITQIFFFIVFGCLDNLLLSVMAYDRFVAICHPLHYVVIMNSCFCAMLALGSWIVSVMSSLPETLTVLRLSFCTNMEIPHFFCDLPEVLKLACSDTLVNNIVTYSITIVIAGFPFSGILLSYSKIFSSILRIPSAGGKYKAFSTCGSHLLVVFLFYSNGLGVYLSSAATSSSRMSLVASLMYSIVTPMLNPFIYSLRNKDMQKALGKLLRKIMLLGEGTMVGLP
Method in brief: as §1

[8] = biological target: T8, UniProt Q7TQV4
T8 sequence (whole entry): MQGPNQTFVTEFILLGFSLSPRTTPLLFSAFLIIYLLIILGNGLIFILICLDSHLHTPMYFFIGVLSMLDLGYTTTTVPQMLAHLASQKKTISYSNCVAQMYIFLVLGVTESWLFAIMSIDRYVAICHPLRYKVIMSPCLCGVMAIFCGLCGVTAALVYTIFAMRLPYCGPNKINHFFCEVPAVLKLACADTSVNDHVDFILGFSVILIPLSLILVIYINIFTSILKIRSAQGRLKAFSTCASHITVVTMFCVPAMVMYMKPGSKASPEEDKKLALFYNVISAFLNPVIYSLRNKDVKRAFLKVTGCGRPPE
Method in brief: as §1

[9] = biological target: T9, UniProt Q7TR71
T9 sequence (whole entry): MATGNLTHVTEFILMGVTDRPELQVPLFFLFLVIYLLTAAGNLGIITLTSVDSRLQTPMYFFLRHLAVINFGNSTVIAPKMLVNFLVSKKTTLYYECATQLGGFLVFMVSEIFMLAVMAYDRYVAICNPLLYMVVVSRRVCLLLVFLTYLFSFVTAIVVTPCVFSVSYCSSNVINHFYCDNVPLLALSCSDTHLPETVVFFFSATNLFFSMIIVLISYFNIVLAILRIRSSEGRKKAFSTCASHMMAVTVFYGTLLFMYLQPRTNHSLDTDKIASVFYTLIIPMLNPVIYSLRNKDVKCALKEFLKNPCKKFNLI
Method in brief: as §1

[10] = biological target: T10, UniProt Q7TR79
T10 sequence (whole entry): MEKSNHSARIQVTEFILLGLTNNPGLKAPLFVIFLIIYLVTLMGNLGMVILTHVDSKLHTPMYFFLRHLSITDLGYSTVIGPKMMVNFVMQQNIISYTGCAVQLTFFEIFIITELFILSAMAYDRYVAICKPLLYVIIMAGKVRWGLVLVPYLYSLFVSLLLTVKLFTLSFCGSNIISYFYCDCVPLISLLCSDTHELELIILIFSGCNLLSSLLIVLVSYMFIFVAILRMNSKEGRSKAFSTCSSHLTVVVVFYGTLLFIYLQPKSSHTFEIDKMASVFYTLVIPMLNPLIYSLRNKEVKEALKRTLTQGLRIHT
Method in brief: as §1

[11] = biological target: T11, UniProt Q7TRA3
T11 sequence (whole entry): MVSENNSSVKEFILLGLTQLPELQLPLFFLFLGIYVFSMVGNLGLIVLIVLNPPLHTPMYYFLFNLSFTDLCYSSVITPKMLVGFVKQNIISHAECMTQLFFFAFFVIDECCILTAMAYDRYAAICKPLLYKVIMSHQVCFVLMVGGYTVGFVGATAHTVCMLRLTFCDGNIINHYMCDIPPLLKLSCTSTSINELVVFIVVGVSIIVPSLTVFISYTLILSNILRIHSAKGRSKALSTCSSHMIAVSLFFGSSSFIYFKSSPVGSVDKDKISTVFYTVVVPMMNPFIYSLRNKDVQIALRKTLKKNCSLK
Method in brief: as §1

[12] = biological target: T12, UniProt Q7TRA1
T12 sequence (whole entry): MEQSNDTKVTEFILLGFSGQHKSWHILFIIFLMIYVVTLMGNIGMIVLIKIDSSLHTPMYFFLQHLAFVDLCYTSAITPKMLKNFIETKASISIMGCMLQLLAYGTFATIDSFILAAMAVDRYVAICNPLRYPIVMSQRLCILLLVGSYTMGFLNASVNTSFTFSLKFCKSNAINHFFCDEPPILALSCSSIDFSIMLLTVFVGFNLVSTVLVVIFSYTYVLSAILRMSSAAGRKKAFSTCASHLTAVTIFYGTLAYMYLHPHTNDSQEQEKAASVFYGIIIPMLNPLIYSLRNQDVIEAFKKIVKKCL
Method in brief: as §1

[13] = biological target: T13, UniProt Q7TRA2
T13 sequence (whole entry): T12 sequence (whole entry) with S18A, I86T, I94F, M95I, S112C, V208L, T219I, V221I, V305A
Method in brief: as §1

[14] = biological target: T14, UniProt E9Q9Z6
T14 sequence (whole entry): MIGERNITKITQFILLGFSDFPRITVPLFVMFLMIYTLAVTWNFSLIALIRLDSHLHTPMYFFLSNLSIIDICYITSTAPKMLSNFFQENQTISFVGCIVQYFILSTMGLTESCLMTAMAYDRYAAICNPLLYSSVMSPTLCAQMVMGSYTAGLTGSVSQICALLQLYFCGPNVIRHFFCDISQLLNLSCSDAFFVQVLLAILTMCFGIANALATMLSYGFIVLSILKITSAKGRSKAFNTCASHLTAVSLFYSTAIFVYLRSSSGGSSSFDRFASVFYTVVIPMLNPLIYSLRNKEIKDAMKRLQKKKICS
Method in brief: as §1

Measured: odorant receptor agonist call

CCCCCCC=O
inactive: [1] | [2] | [3] | [4] | [5] | [6] | [7] | [8] | [9] | [10] | [11]

CCCCCCCCC=O
inactive: [1] | [2] | [3] | [4] | [5] | [6] | [7] | [8] | [9] | [10] | [12] | [11]
active: [13]

CCCCCCCC=O
inactive: [1] | [2] | [3] | [4] | [5] | [6] | [7] | [8] | [9] | [10] | [11]

COc1cc(C=O)ccc1O
inactive: [1] | [3] | [5] | [6] | [7] | [10]
active: [4]

CC1CCC(C(C)C)C(O)C1 (stereo not drawn)
inactive: [3]

CC1COCc2cc3c(cc21)C(C)(C)C(C)C3(C)C (stereo not drawn)
inactive: [1] | [3] | [4] | [5] | [6] | [7] | [10]
active: [14]

CC(C)CC(=O)O
inactive: [1] | [3] | [4] | [5] | [6] | [7] | [10]
